Assay results as given in patent US9957546B2, “Vivo detection of phospholipase activation” (THE TRUSTEES OF THE UNIVERSITY OF PENNSYLVANIA, priority 2008, dated 2018).

Test system: DU145 prostate cells
Experiment: Cell uptake and in situ activation, laser confocal microscopy
Assay type: cell-based, human
Conditions: 5 μM, 1 hr

C=Cc1c(C)c2cc3nc(c4c5[nH]c(cc6nc(cc1[nH]2)C(C)=C6CC)c(C)c5C(=O)C4)C(CCC(=O)OC(COC(=O)CCCCCCCCCCCCCCC)COP(=O)(O)OCCN)C3C (stereo not shown) [Pyro-PL]
subcellular localization of fluorescence: primarily cytoplasmic; also recorded: localizes primarily in cytoplasm

Entries after “also recorded” stand apart in the source; their conditions may differ.
